No constants are given. Whether binding was seen depends on the method and setting. In cells and extracts the contact can be indirect. Some results given as binding are weak or reduced against the parent protein; the word gives no strength. Sequences can lack the tags named with a protein.

Amino acid sequences for entries named in this document (tags omitted).
UniProt Q9DC51: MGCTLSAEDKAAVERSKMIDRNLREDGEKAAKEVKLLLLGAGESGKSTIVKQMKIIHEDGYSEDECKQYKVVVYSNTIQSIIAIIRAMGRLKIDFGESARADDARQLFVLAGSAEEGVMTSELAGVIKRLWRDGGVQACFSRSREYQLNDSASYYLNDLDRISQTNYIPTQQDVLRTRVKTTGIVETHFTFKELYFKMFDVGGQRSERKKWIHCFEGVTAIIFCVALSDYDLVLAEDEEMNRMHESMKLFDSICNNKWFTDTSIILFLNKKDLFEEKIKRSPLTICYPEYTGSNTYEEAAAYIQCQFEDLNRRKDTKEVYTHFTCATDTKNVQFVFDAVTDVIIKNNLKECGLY

Consider one substance from paper PMC9700814.

In this assay the target is T1, flag-GPSM1 (G-protein-signaling modulator 1) (UniProt Q6IR34).
T1 sequence: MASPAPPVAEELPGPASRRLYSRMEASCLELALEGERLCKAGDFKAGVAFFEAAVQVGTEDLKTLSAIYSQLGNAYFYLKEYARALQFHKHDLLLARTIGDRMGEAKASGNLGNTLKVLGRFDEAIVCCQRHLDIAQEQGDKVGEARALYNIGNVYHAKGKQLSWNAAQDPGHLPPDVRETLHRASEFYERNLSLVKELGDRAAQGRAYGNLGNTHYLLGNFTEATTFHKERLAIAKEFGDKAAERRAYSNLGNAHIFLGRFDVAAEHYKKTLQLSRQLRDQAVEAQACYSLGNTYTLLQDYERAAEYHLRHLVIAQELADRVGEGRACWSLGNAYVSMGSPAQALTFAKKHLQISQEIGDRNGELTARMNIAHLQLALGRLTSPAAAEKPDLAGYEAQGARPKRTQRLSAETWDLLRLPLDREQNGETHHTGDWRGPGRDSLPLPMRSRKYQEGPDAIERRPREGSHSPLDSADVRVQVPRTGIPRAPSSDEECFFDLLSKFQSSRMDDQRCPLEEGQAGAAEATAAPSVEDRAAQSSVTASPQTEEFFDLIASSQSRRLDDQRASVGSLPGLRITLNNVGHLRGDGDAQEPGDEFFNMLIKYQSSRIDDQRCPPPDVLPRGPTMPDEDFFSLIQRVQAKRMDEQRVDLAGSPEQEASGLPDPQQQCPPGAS
As to the kind of experiment: co-IP; IP of flag with agarose-conjugated anti-DYKDDDDK affinity beads from lysates (IP buffer) of BMDMs transfected with Ad-flag-GPSM1 or Ad-Con, 4 °C overnight, with or without LPS stimulation; immunoblot for Gαi3.

Turning to Gαi3 (from UniProt Q9DC51 1-354), the binding entry is “binds”.
